Publication PMC9453702, “Structure-function analysis of enterovirus protease 2A in complex with its essential host factor SETD3” (Nature Communications, 2022)

Molecular target: coxsackievirus B3 protease 2A with C-terminal His6-tag (for biolayer interferometry) (coxsackievirus B3 (Nancy strain))
Test: BLI; Octet RED384; His-tagged 2A loaded on Ni-NTA biosensors at 20 µg/ml, SETD3 variants in solution at several concentrations; 20 mM Tris/HCl pH 8.0, 150 mM NaCl, 5% glycerol, 1 mM DTT; global fit with Rmax unlinked; both purified

B1: human SETD3 Q257A + V266D + Y288P (recombinant, tag cleaved) (enzyme, UniProt Q86TU7 1-594)
chain: MGKKSRVKTQKSGTGATATVSPKEILNLTSELLQKCSSPAPGPGKEWEEYVQIRTLVEKIRKKQKGLSVTFDGKREDYFPDLMKWASENGASVEGFEMVNFKEEGFGLRATRDIKAEELFLWVPRKLLMTVESAKNSVLGPLYSQDRILQAMGNIALAFHLLCERASPNSFWQPYIQTLPSEYDTPLYFEEDEVRYLQSTQAIHDVFSQYKNTARQYAYFYKVIQTHPHANKLPLKDSFTYEDYRWAVSSVMTRQNAIPTEDGSRDTLALIPLWDMCNHTNGLITTGPNLEDDRCECVALQDFRAGEQIYIFYGTRSNAEFVIHSGFFFDNNSHDRVKIKLGVSKSDRLYAMKAEVLARAGIPTSSVFALHFTEPPISAQLLAFLRVFCMTEEELKEHLLGDSAIDRIFTLGNSEFPVSWDNEVKLWTFLEDRASLLLKTYKTTIEEDKSVLKNHDLSVRAKMAIKLRLGEKEILEKAVKSAAVNREYYRQQMEEKAPLPKYEESNLGLLESSVGDSRLPLVLRNLEEEAGVQDALNIREAISKAKATENGLVNGENSIPNGTRSENESLNQESKRAVEDAKGSSSDSTAGVKE
For B1, the binding was “binds weakly”.

No constants are given. Whether binding was seen depends on the method and setting. A result given as binding can be weak or reduced; the word gives no strength. Sequences can lack the tags named with a protein.
